Source: PMC7819943, “Rice protein-binding microarrays: a tool to detect cis-acting elements near promoter regions in rice”
The other results are listed elsewhere or left out.

The chains behind the UniProt entries cited, without tags or fusion partners.
UniProt Q0JBA9, entry or part of it: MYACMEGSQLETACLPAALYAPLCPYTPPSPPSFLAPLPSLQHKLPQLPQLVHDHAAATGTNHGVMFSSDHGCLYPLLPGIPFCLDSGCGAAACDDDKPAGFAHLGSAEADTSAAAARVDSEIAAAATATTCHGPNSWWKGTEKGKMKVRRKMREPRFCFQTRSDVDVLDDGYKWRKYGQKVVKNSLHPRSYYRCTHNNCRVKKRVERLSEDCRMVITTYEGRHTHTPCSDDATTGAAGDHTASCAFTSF

Molecular target: OsWRKY34 (Oryza sativa, UniProt Q0JBA9 1-250)
Experiment: protein-binding microarray (RPBM); PBS, 2% BSA, 51.3 ng/ul salmon testes DNA, 50 uM zinc acetate, 200 nM TF, 25 C, 1 h; high values mean tight binding
Conditions: protein: recombinant; tags: N-terminal polyhistidine and DsRed monomer fusion (pET32a); label: CyDye5-dUTP incorporated in the synthesized complementary strand; 3' TTTTT single-stranded linker to array surface; dsDNA, one strand shown
Procedure, shortened: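 The binding signal is fluorescence intensity per array feature (arbitrary units). Readings came from an Axon 4000B scanner after a washed, 2% BSA-blocked, double-stranded custom Agilent array had been incubated for 1 h at 25 °C with 200 nM protein and 50 µM zinc acetate. The protein was a Ni–NTA-purified transcription factor fused N-terminally to polyhistidine and DsRed, expressed in E. coli BL21-CodonPlus.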

Question: With “CCTCGCCGAAGCCTCTCTACCTCTGTGTGTCTCTCTCTCCCGGAGTCACCTAGTGCAG” as the sequence, how does the binding signal read?
Answer: 8120 fluorescence intensity (a.u.)

Question: “GTTTCATTTTTTCTTCTTTCTTTGCTTTTGTTTCCAAGTCCGGAGTCACCTAGTGCAG” was tested. Which binding signal did it give?
Answer: 10900 fluorescence intensity (a.u.)

Question: Which binding signal does the source give for “GGTACAGTTTCGTGTCCCTGCACTTCATCGAGTGTATTTTCGGAGTCACCTAGTGCAG” here?
Answer: 11600 fluorescence intensity (a.u.)

Question: For “TCAGGTTTCTATTTCCACCACATATTTTAGTTTTAATCCACGGAGTCACCTAGTGCAG”, which binding signal is on record?
Answer: 10000 fluorescence intensity (a.u.)

Question: Which binding signal does the source give for “ACATTCTCGATTTTGCTCTCTAACTCTCGATTTTTATTGTCGGAGTCACCTAGTGCAG” here?
Answer: 8710 fluorescence intensity (a.u.)

Question: With “TTTTTCTGTTTGGTTTCATGTGCCTGTCCTTTTCACTGACCGGAGTCACCTAGTGCAG” as the sequence, how does the binding signal read?
Answer: 15400 fluorescence intensity (a.u.)

Question: Which binding signal does the source give for “GGTTGGTTGATTTGATTAGTGAAACAAAAAAAAAGTGGTTCGGAGTCACCTAGTGCAG” here?
Answer: 9950 fluorescence intensity (a.u.)

Question: For “ATGTCGTTACCAACGCCGCGCGTCTCCCACTCACCACCGCCGGAGTCACCTAGTGCAG”, which binding signal is on record?
Answer: 9350 fluorescence intensity (a.u.)

Question: For “TTTACATATAATTTTCTTTAGGGTTTTATAGCTTTTTTAACGGAGTCACCTAGTGCAG”, which binding signal is on record?
Answer: 8600 fluorescence intensity (a.u.)

Question: With “CGTGTACGCAACCTCCGCTTCATCACGCCCGTTCGTCGCGCGGAGTCACCTAGTGCAG” as the sequence, how does the binding signal read?
Answer: 11200 fluorescence intensity (a.u.)

Question: “GCCCTTTTGGTCTCGGGTGGATCCGCTTAGCTTTGGTTCTCGGAGTCACCTAGTGCAG” was tested. Which binding signal did it give?
Answer: 8610 fluorescence intensity (a.u.)

Question: “GTCCGCTTGCTGCTGAGCGGTGCCTAACATCCTTAAATTTCGGAGTCACCTAGTGCAG” was tested. Which binding signal did it give?
Answer: 8370 fluorescence intensity (a.u.)

Question: For “AAATTACGCTCCTGAAGTCACGCCTACGCGTGCACGTGCACGGAGTCACCTAGTGCAG”, which binding signal is on record?
Answer: 8870 fluorescence intensity (a.u.)

Question: How did the binding signal turn out when “TCGCCGCGCTCGCCCGCGCCCCGCCTTCCGCCGCCTGCGGCGGAGTCACCTAGTGCAG” was run?
Answer: 8380 fluorescence intensity (a.u.)

Question: With “ATGGTGGTTTTTCTTTTTTTTTCCACTCACCCTCAAATAACGGAGTCACCTAGTGCAG” as the sequence, how does the binding signal read?
Answer: 13800 fluorescence intensity (a.u.)

Question: “AGTTTTTCATTTACTCATAGCCTTCCACATATGCTCATTCCGGAGTCACCTAGTGCAG” was tested. Which binding signal did it give?
Answer: 8740 fluorescence intensity (a.u.)

Question: How did the binding signal turn out when “TTTCGTAGCCTTAAAATTACCTCGTCACTGTCTTGTACTCCGGAGTCACCTAGTGCAG” was run?
Answer: 9930 fluorescence intensity (a.u.)

Question: For “CGCACCAATCTCACCACATCAATCCACATGGCGTCGCGTCCGGAGTCACCTAGTGCAG”, which binding signal is on record?
Answer: 8610 fluorescence intensity (a.u.)

Question: How did the binding signal turn out when “CGCAATCGGATTTCATATTGTATCGGCTGTTACTGTGAAGCGGAGTCACCTAGTGCAG” was run?
Answer: 8260 fluorescence intensity (a.u.)

Question: With “TCAACGCTAGCTACCTACCCGTTGTTGACCAACGCTAATTCGGAGTCACCTAGTGCAG” as the sequence, how does the binding signal read?
Answer: 9590 fluorescence intensity (a.u.)

Question: With “CGGCTACTTTAGCCGCGAACTCCCTTAACATTTCCCACCTCGGAGTCACCTAGTGCAG” as the sequence, how does the binding signal read?
Answer: 8480 fluorescence intensity (a.u.)

Question: Which binding signal does the source give for “AACTATACCAACGTTCTATCTCCTTTGATGTCATGACATCCGGAGTCACCTAGTGCAG” here?
Answer: 11000 fluorescence intensity (a.u.)

Question: With “ATAATTTCATGAGTATTGTTGACTGTAGTATATACATTAGCGGAGTCACCTAGTGCAG” as the sequence, how does the binding signal read?
Answer: 8230 fluorescence intensity (a.u.)

Question: For “TCTCATCCGTCCGTCCATCATCTCATCTAATCTATCCGTCCGGAGTCACCTAGTGCAG”, which binding signal is on record?
Answer: 10300 fluorescence intensity (a.u.)

Question: With “CACCCTTTCTGTGCCCCGTTTTGTCGTCTTTGGAAGCGACCGGAGTCACCTAGTGCAG” as the sequence, how does the binding signal read?
Answer: 8760 fluorescence intensity (a.u.)

Question: Which binding signal does the source give for “GCAGGTCGCGGCGTTCATCTCATCACTCATCAGGGTTTGTCGGAGTCACCTAGTGCAG” here?
Answer: 8180 fluorescence intensity (a.u.)

Question: Which binding signal does the source give for “GGGGTGCACATGACACGACTGCTTCCGCGTTTCTTCTCGGCGGAGTCACCTAGTGCAG” here?
Answer: 9540 fluorescence intensity (a.u.)

Question: With “TGGCTGAACAGAACACTAGAATAGGGGAGGGGCGGCGATCCGGAGTCACCTAGTGCAG” as the sequence, how does the binding signal read?
Answer: 9380 fluorescence intensity (a.u.)

Question: With “GGGGCCTCATCTTTTCGCTTATGTTTATATTTATCAACCACGGAGTCACCTAGTGCAG” as the sequence, how does the binding signal read?
Answer: 12500 fluorescence intensity (a.u.)

Question: “ATATACACATTCTCCCATTGCTATATTATCTGTATTCTGACGGAGTCACCTAGTGCAG” was tested. Which binding signal did it give?
Answer: 13400 fluorescence intensity (a.u.)

Question: Which binding signal does the source give for “CACTTGCAATCCTACCAAAATCTCGTGTTTTTCCTATTCCCGGAGTCACCTAGTGCAG” here?
Answer: 11100 fluorescence intensity (a.u.)

Question: With “TCAAGAACCATAAAATTGCTCATTTTATAATTATCCTTTTCGGAGTCACCTAGTGCAG” as the sequence, how does the binding signal read?
Answer: 8380 fluorescence intensity (a.u.)

Question: For “TGTATTTTTCTTTCATAACTTGTATACTTGTATGTATTTGCGGAGTCACCTAGTGCAG”, which binding signal is on record?
Answer: 11200 fluorescence intensity (a.u.)

Question: “TTCTCATACTCGTTGGCTCGTTGCTCCTTTGCATCAAATGCGGAGTCACCTAGTGCAG” was tested. Which binding signal did it give?
Answer: 8230 fluorescence intensity (a.u.)

Question: How did the binding signal turn out when “CCCACCTACAAGAAATCATTTCTACGACGCCTGCTACCTTCGGAGTCACCTAGTGCAG” was run?
Answer: 8690 fluorescence intensity (a.u.)

Question: “CCTACACACGAAACCTCCGCGCCTCATCCGGGCTTCGCGACGGAGTCACCTAGTGCAG” was tested. Which binding signal did it give?
Answer: 10600 fluorescence intensity (a.u.)

Question: How did the binding signal turn out when “CAACCTATAACTTCGCCGTAAGCTCCTCTTCGTTTTCTCTCGGAGTCACCTAGTGCAG” was run?
Answer: 8570 fluorescence intensity (a.u.)

Question: With “TGCTGCTGCGATGGGAGGCCGGGAGGAGGGGCGGGGCGGCCGGAGTCACCTAGTGCAG” as the sequence, how does the binding signal read?
Answer: 15400 fluorescence intensity (a.u.)

Question: With “CACTATACACCGCTGCTTGAATGCTGCCATGGTTCCAGCTCGGAGTCACCTAGTGCAG” as the sequence, how does the binding signal read?
Answer: 8760 fluorescence intensity (a.u.)

Question: Which binding signal does the source give for “GTCCACAGCAAGATGCATGTCTTCGTCCACTAGCTATTTTCGGAGTCACCTAGTGCAG” here?
Answer: 8480 fluorescence intensity (a.u.)

Question: With “CTGCTTCCTCTTTCTTCTTCTTCTTCTGCTCTTTCTTCTTCGGAGTCACCTAGTGCAG” as the sequence, how does the binding signal read?
Answer: 10000 fluorescence intensity (a.u.)

Question: For “CTCTATTCGTTTTTCATATTATAAGTCGTTTGACGTTTTTCGGAGTCACCTAGTGCAG”, which binding signal is on record?
Answer: 9170 fluorescence intensity (a.u.)
